Paper PMC12663635
These are yes or no findings as the source states them, for the method shown. In cells and extracts the contact can be indirect. A yes stands for co-enrichment or nearness to the bait. Other partners may have been found. A no says only that the protein was not detected with the bait. Where a sequence is shown, tags or fusion partners need not be part of it. One block for each molecule: values may come before it.

Amino acid sequences for entries named in this document (tags omitted). A change or cut given only in a name is not applied to a line headed by its entry. Residues count along the entry.
UniProt Q13586, residues 23-685: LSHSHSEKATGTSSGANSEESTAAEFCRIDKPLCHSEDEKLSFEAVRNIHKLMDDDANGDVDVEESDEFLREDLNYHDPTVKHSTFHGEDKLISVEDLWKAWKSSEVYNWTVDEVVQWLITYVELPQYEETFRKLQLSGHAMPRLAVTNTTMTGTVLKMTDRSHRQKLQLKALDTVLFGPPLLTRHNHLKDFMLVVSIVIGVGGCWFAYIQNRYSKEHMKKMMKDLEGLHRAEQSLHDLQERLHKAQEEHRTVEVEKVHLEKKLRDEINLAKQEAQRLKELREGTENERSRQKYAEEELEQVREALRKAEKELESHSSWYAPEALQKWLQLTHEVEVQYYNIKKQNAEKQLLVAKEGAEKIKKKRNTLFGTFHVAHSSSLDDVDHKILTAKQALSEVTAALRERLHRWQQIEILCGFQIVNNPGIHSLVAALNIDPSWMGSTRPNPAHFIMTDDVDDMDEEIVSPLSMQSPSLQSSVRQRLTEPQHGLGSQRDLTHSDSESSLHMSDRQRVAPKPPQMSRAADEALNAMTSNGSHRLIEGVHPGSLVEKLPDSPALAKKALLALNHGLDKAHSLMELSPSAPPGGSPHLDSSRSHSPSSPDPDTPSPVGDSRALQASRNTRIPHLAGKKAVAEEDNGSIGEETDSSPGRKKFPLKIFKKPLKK
UniProt A1XBS5: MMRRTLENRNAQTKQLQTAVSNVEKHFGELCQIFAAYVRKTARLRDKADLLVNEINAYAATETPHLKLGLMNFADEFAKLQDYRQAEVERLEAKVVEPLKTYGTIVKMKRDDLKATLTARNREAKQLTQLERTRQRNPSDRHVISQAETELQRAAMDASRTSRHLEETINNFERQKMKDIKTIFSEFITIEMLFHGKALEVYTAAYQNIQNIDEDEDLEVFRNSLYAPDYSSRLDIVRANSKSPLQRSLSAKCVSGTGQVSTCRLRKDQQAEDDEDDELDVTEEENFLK
UniProt Q14573: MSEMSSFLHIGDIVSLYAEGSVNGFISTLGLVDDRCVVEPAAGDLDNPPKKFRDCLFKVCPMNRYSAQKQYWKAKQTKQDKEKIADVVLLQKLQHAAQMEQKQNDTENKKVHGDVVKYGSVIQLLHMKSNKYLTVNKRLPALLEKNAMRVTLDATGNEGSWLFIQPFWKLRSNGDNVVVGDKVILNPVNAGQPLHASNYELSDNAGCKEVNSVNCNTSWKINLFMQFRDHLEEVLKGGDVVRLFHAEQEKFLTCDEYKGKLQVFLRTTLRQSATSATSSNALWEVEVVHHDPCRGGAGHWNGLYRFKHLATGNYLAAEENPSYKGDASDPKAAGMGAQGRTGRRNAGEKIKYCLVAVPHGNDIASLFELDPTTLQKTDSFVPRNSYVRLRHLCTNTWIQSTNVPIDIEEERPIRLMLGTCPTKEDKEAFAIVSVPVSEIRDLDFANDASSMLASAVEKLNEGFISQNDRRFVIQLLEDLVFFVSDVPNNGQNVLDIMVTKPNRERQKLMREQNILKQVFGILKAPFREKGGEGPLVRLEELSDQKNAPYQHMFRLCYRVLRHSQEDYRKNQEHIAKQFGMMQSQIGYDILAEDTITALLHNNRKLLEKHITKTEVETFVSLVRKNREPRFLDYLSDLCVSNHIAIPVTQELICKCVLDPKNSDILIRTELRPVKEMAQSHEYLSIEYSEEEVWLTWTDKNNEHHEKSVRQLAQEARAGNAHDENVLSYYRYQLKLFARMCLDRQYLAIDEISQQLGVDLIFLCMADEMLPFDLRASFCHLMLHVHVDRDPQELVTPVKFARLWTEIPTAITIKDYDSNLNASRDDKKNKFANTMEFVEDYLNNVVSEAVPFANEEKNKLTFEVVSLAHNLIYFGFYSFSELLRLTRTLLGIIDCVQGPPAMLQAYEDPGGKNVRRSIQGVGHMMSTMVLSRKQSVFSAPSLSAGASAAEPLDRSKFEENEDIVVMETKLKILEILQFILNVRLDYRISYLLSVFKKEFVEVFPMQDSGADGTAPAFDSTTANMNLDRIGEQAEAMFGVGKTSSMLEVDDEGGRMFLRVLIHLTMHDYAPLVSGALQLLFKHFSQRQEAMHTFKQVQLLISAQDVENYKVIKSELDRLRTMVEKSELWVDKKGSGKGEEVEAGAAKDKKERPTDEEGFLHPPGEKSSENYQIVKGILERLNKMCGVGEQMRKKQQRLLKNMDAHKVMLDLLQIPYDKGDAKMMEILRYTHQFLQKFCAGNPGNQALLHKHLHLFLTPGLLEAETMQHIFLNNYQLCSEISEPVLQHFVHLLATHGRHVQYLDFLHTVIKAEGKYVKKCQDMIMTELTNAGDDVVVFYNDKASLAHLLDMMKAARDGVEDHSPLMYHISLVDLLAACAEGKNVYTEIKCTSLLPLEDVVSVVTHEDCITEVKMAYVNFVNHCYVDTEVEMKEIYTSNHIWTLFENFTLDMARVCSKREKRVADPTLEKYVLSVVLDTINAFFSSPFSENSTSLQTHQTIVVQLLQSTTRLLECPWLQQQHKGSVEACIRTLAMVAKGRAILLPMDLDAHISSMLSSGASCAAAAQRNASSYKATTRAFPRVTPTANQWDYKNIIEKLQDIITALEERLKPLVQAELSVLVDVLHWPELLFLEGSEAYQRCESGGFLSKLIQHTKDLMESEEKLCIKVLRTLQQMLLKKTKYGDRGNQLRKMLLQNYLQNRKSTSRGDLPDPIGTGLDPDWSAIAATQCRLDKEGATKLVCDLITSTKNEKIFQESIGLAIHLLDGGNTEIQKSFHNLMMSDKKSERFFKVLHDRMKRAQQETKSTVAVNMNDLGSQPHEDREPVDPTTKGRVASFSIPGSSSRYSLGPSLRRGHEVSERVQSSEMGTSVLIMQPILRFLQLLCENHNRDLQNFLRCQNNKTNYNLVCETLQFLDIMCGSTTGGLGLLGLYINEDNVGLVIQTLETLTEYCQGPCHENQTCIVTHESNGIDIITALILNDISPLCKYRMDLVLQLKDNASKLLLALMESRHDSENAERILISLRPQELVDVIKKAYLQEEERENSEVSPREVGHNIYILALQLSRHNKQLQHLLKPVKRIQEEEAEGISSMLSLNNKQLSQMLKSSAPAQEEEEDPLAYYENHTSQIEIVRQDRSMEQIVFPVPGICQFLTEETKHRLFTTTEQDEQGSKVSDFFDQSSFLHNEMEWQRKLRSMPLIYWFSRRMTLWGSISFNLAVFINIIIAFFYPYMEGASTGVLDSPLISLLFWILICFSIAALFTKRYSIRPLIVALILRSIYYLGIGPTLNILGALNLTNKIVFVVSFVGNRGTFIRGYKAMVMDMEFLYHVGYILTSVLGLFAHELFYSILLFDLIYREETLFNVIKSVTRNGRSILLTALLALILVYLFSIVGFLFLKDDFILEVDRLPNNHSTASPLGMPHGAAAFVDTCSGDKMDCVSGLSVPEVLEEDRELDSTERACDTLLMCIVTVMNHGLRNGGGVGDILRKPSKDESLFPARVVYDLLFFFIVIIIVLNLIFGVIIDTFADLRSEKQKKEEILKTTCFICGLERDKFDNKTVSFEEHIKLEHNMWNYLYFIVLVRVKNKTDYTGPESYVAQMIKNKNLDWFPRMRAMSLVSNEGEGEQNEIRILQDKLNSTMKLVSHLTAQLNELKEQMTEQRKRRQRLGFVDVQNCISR
UniProt Q9NZJ5, residues 30-1116: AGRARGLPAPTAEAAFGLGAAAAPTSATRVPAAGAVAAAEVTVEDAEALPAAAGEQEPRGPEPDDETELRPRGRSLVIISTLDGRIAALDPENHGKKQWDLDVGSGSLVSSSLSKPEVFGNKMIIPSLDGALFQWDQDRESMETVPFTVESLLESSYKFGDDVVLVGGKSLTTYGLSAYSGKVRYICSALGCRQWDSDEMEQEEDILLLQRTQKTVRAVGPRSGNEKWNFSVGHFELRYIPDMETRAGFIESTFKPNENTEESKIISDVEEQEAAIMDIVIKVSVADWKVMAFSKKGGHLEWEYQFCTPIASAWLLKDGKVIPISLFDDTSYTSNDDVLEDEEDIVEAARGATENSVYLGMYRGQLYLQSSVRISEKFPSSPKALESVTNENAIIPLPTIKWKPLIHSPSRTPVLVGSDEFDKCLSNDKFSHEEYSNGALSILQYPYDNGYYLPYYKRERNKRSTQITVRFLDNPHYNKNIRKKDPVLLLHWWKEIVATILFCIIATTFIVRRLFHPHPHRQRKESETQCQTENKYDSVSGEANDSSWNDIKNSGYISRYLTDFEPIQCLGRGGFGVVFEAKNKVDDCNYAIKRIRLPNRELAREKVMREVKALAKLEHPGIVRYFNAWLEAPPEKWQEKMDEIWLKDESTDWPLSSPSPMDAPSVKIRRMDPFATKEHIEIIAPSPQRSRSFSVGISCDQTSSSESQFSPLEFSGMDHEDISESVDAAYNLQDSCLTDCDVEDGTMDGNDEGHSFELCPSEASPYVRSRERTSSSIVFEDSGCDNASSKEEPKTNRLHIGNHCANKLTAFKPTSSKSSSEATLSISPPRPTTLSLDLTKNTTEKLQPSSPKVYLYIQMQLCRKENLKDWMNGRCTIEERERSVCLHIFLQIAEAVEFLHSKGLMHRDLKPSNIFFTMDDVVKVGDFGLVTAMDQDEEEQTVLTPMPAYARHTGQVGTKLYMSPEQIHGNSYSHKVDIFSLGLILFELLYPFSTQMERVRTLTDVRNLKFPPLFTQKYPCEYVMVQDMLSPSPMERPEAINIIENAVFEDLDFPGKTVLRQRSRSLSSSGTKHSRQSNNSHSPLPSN
UniProt Q9UBS4, residues 23-358: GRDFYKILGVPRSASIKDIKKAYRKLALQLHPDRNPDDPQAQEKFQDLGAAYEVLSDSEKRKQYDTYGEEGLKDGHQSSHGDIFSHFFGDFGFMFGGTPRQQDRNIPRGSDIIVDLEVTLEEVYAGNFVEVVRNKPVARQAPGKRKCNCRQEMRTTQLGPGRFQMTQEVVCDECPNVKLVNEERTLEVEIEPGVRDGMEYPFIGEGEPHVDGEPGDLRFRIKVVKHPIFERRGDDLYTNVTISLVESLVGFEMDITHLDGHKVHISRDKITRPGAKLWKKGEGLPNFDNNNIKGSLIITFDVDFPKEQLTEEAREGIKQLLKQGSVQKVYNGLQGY

Molecular target: T1, full-length PC2 fused with FLAG-BirA* (PC2-BF / FB-PC2 BioID baits, datasets merged) (human) (UniProt Q13563)
T1 sequence: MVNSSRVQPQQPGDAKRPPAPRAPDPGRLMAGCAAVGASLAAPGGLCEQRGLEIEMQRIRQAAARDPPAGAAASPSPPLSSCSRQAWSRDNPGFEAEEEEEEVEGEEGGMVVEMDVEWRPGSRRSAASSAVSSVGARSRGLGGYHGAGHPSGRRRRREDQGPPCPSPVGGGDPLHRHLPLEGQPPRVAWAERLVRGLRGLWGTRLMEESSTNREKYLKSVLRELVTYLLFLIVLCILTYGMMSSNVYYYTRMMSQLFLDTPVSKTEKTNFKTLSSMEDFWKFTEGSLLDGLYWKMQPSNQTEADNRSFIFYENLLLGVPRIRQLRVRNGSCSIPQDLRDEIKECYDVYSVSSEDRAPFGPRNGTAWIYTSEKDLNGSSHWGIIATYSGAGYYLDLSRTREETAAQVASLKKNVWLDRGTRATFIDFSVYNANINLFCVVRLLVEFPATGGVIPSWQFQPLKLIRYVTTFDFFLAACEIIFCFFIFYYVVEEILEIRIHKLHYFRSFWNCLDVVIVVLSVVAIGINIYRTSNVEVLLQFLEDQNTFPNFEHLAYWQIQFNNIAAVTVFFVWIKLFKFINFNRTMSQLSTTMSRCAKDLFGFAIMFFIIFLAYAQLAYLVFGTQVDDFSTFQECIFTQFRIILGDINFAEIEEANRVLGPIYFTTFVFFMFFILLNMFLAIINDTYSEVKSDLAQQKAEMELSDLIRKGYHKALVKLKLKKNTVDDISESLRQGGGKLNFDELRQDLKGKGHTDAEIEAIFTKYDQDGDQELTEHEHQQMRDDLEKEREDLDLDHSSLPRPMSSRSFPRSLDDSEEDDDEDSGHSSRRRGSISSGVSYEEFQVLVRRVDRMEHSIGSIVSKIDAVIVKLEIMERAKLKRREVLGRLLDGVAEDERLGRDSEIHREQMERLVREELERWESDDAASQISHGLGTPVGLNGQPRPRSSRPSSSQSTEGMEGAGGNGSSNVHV
Assay: proximity labelling; BioID in Flp-In HEK293 T-REx stable lines: bait induced with 1 ug/ml tetracycline and 50 uM biotin for 24 h, cycling cells or cells kept 48 h in 0.5% serum (ciliation-induced); streptavidin capture, LC-MS/MS; SAINTexpress, BFDR <=1% against FlagBirA* controls, PC1-BF also filtered against CD16.7-BF

Molecule: STIM1 (from UniProt Q13586 23-685)
binding: binds

Molecule: CBY1 (from UniProt Q9Y3M2 1-126)
binding: binds

Molecule: CIBAR1 (from UniProt A1XBS5)
binding: binds

B3: NNT (protein, UniProt Q13423 44-1086)
chain: CKAPVKPGIPYKQLTVGVPKEIFQNEKRVALSPAGVQNLVKQGFNVVVESGAGEASKFSDDHYRVAGAQIQGAKEVLASDLVVKVRAPMVNPTLGVHEADLLKTSGTLISFIYPAQNPELLNKLSQRKTTVLAMDQVPRVTIAQGYDALSSMANIAGYKAVVLAANHFGRFFTGQITAAGKVPPAKILIVGGGVAGLASAGAAKSMGAIVRGFDTRAAALEQFKSLGAEPLEVDLKESGEGQGGYAKEMSKEFIEAEMKLFAQQCKEVDILISTALIPGKKAPVLFNKEMIESMKEGSVVVDLAAEAGGNFETTKPGELYIHKGITHIGYTDLPSRMATQASTLYSNNITKLLKAISPDKDNFYFDVKDDFDFGTMGHVIRGTVVMKDGKVIFPAPTPKNIPQGAPVKQKTVAELEAEKAATITPFRKTMSTASAYTAGLTGILGLGIAAPNLAFSQMVTTFGLAGIVGYHTVWGVTPALHSPLMSVTNAISGLTAVGGLALMGGHLYPSTTSQGLAALAAFISSVNIAGGFLVTQRMLDMFKRPTDPPEYNYLYLLPAGTFVGGYLAALYSGYNIEQIMYLGSGLCCVGALAGLSTQGTARLGNALGMIGVAGGLAATLGVLKPGPELLAQMSGAMALGGTIGLTIAKRIQISDLPQLVAAFHSLVGLAAVLTCIAEYIIEYPHFATDAAANLTKIVAYLGTYIGGVTFSGSLIAYGKLQGLLKSAPLLLPGRHLLNAGLLAASVGGIIPFMVDPSFTTGITCLGSVSALSAVMGVTLTAAIGGADMPVVITVLNSYSGWALCAEGFLLNNNLLTIVGALIGSSGAILSYIMCVAMNRSLANVILGGYGTTSTAGGKPMEISGTHTEINLDNAIDMIREANSIIITPGYGLCAAKAQYPIADLVKMLTEQGKKVRFGIHPVAGRMPGQLNVLLAEAGVPYDIVLEMDEINHDFPDTDLVLVIGANDTVNSAAQEDPNSIIAGMPVLEVWKSKQVIVMKRSLGVGYAAVDNPIFYKPNTAMLLGDAKKTCDALQAKVRESYQK
binding: binds

B5: LRRC49 (protein, UniProt Q8IUZ0 1-686)
chain: MIPGKYRSVSGRAANNVNCGLHLVIQTSSLPEKNKVEFKLNKDTSSFPGRLLQHDLERNYSSRQGDHINLVSSSLSSFPILQRSSEEKILYSDRLSLERQKLTVCPIINGEDHLRLLNFQHNFITRIQNISNLQKLISLDLYDNQIEEISGLSTLRCLRVLLLGKNRIKKISNLENLKSLDVLDLHGNQITKIENINHLCELRVLNLARNFLSHVDNLNGLDSLTELNLRHNQITFVRDVDNLPCLQHLFLSFNNISSFDSVSCLADSSSLSDITFDGNPIAQESWYKHTVLQNMMQLRQLDMKRITEEERRMASVLAKKEEEKKRESHKQSLLKEKKRLTINNVARQWDLQQQRVANIATNEDRKDSDSPQDPCQIDGSTLSAFPEETGPLDSGLNNALQGLSVIDTYLVEVDGDTLSLYGSGALESLDRNWSVQTAGMITTVSFTFIEFDEIVQVLPKLKIKFPNSLHLKFKETNLVMLQQFNALAQLRRIDQLTIDPQGNPVVNFTLWKYYVLFRLSHFSMQKINGTEVTQNDMIMAERLFGILAHVASSELPQYRLISILGDARKKQFRYLLESKGKKPGIINEENNDSKRLVGENTNRATLNYTTRDFYNEKLEEIKEKKKFCKTYIEDLVKEATEINMKNEALQKLWPQMFIELVRDAVIEIRNKNSYMKLCLQQITDQK
binding: binds

Further lines, results first:

binding: binds
Molecule: ITPR3 (from UniProt Q14573 1-2671)

binding: binds
Molecule: EIF2KA3 (from UniProt Q9NZJ5 30-1116)

binding: binds
Molecule: DNAJB11 (from UniProt Q9UBS4 23-358)

binding: binds
B1: TBL2 (protein, UniProt Q9Y4P3 1-447)
chain: MELSQMSELMGLSVLLGLLALMATAAVARGWLRAGEERSGRPACQKANGFPPDKSSGSKKQKQYQRIRKEKPQQHNFTHRLLAAALKSHSGNISCMDFSSNGKYLATCADDRTIRIWSTKDFLQREHRSMRANVELDHATLVRFSPDCRAFIVWLANGDTLRVFKMTKREDGGYTFTATPEDFPKKHKAPVIDIGIANTGKFIMTASSDTTVLIWSLKGQVLSTINTNQMNNTHAAVSPCGRFVASCGFTPDVKVWEVCFGKKGEFQEVVRAFELKGHSAAVHSFAFSNDSRRMASVSKDGTWKLWDTDVEYKKKQDPYLLKTGRFEEAAGAAPCRLALSPNAQVLALASGSSIHLYNTRRGEKEECFERVHGECIANLSFDITGRFLASCGDRAVRLFHNTPGHRAMVEEMQGHLKRASNESTRQRLQQQLTQAQETLKSLGALKK

binding: binds
B2: TMEM38B (protein, UniProt Q9NVV0 1-291)
chain: MDSPWDELALAFSRTSMFPFFDIAHYLVSVMAVKRQPGAAALAWKNPISSWFTAMLHCFGGGILSCLLLAEPPLKFLANHTNILLASSIWYITFFCPHDLVSQGYSYLPVQLLASGMKEVTRTWKIVGGVTHANSYYKNGWIVMIAIGWARGAGGTIITNFERLVKGDWKPEGDEWLKMSYPAKVTLLGSVIFTFQHTQHLAISKHNLMFLYTIFIVATKITMMTTQTSTMTFAPFEDTLSWMLFGWQQPFSSCEKKSEAKSPSNGVGSLASKPVDVASDNVKKKHTKKNE

binding: no binding
B4: FNIP2 (protein, UniProt Q9P278 1-1114)
chain: MAPTLLQKLFNKRGSSGSSAAASAQGRAPKEGPAFSWSCSEFDLNEIRLIVYQDCDRRGRQVLFDSKAVQKIEEVTAQKTEDVPIKISAKCCQGSSSVSSSSSSSISSHSSSGGSSHHAKEQLPKYQYTRPASDVNMLGEMMFGSVAMSYKGSTLKIHYIRSPPQLMISKVFSARMGSFCGSTNNLQDSFEYINQDPNLGKLNTNQNSLGPCRTGSNLAHSTPVDMPSRGQNEDRDSGIARSASLSSLLITPFPSPSSSTSSSSSYQRRWLRSQTTSLENGIIPRRSTDETFSLAEETCSSNPAMVRRKKIAISIIFSLCEKEEAQRNFQDFFFSHFPLFESHMNRLKSAIEKAMISCRKIAESSLRVQFYVSRLMEALGEFRGTIWNLYSVPRIAEPVWLTMMSGTLEKNQLCQRFLKEFTLLIEQINKNQFFAALLTAVLTYHLAWVPTVMPVDHPPIKAFSEKRTSQSVNMLAKTHPYNPLWAQLGDLYGAIGSPVRLTRTVVVGKQKDLVQRILYVLTYFLRCSELQENQLTWSGNHGEGDQVLNGSKIITALEKGEVEESEYVVITVRNEPALVPPILPPTAAERHNPWPTGFPECPEGTDSRDLGLKPDKEANRRPEQGSEACSAGCLGPASDASWKPQNAFCGDEKNKEAPQDGSSRLPSCEVLGAGMKMDQQAVCELLKVEMPTRLPDRSVAWPCPDRHLREKPSLEKVTFQIGSFASPESDFESRMKKMEERVKACGPSLEASEAADVAQDPQVSRSPFKPGFQENVCCPQNRLSEGDEGESDKGFAEDRGSRNDMAADIAGQLSHAADLGTASHGAGGTGGRRLEATRGLYVKAAEGPVLEPVAPRCVQRGPGLVAGANIPCGDDNKKANFRTEGDIPRNESSDSALGDSDDEACASAMLDLGHGGDRTGGSLEVELPLPRSQSISTQNVRNFGRSLLAGYCPTYMPDLVLHGTGSDEKLKQCLVADLVHTVHHPVLDEPIAEAVCIIADTDKWSVQVATSQRKVTDNMKLGQDVLVSSQVSSLLQSILQLYKLHLPADFCIMHLEDRLQEMYLKSKMLSEYLRGHTRVHVKELGVVLGIESNDLPLLTAIASTHSPYVAQILL

binding: binds
B6: ALG5 (protein, UniProt Q9Y673 1-324)
chain: MAPLLLQLAVLGAALAAAALVLISIVAFTTATKMPALHRHEEEKFFLNAKGQKETLPSIWDSPTKQLSVVVPSYNEEKRLPVMMDEALSYLEKRQKRDPAFTYEVIVVDDGSKDQTSKVAFKYCQKYGSDKVRVITLVKNRGKGGAIRMGIFSSRGEKILMADADGATKFPDVEKLEKGLNDLQPWPNQMAIACGSRAHLEKESIAQRSYFRTLLMYGFHFLVWFLCVKGIRDTQCGFKLFTREAASRTFSSLHVERWAFDVELLYIAQFFKIPIAEIAVNWTEIEGSKLVPFWSWLQMGKDLLFIRLRYLTGAWRLEQTRKMN
